For 13 compounds, T/C and survivor count results are on record in PubChem BioAssay AID298 (DTP/NCI, 2004).

The subject of the assay is MX-1 breast xenograft, intrarenal, nude mice, tumor weight. Nature of the assay: NCI In Vivo Anticancer Drug Screen. Data for tumor model Human Mammary Carcinoma MX-1 Xenograft (intrarenal inoculation) in NU/NU BALB/C (nude) mice. The note with it: T/C endpoint: mean tumor weight change, higher T/C = larger tumour; for T/C: evaluated on day 11. In outline:
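Compounds were given to mice carrying transplanted tumors, and tumor size or survival was measured. Each value is the treated-group measurement (T) divided by the vehicle-treated control-group measurement (C).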
Background: Xenograft models place foreign cells or tissue in a host animal.

The list does not hold the whole screen: it gathers tests that were run many times, whatever their T/C, doses with no T/C, and many T/C values between a quarter and a half above the control. Further doses and runs are listed elsewhere. T/C: endpoint of the treated group in % of that of the vehicle group. Schedule codes are those of the source, taken here to give the interval after Q, in days (D) or hours (H), and the number of doses after X. Some entries give survivors of the animals treated and no T/C: the source holds a T/C of zero for them, seemingly a mark for toxic or unscored doses. Counts of survivors are from the toxicity check (mostly the fifth day) where no day follows; animals may have died later. Some entries were tested several times; their values stand side by side, smallest first.

On to `BrCCC1(CCBr)CCCCC1`, for which the T/C (dose: 150.0 mg/kg/injection, schedule: Q04DX003 (sc), vehicle: distilled water + alcohol) is 133 % of control; the T/C (dose: 300.0 mg/kg/injection, schedule: Q04DX003 (sc), vehicle: distilled water + alcohol) is 131 % of control; the T/C (dose: 600.0 mg/kg/injection, schedule: Q04DX003 (sc), vehicle: distilled water + alcohol) is 127 % of control; the T/C (dose: 1200.0 mg/kg/injection, schedule: Q04DX003 (sc), vehicle: distilled water + alcohol) was 135 % of control.
Consider `N=C(N)c1nn(C2OC(CO)C(O)C2O)c2nc[nH]c(=O)c12` (stereo not given), for which the survivor count is listed as 3 of 6 on day 11 (dose: 20.0 mg/kg/injection, schedule: Q01DX010 (ip), vehicle: Klucel + Tween-80); 0 of 6 on day 11 (dose: 40.0 mg/kg/injection, schedule: Q01DX010 (ip), vehicle: Klucel + Tween-80); 0 of 6 on day 11 (dose: 60.0 mg/kg/injection, schedule: Q01DX010 (ip), vehicle: Klucel + Tween-80); 0 of 6 on day 11 (dose: 80.0 mg/kg/injection, schedule: Q01DX010 (ip), vehicle: Klucel + Tween-80); 0 of 6 on day 11 (dose: 200.0 mg/kg/injection, schedule: Q04DX003 (ip), vehicle: distilled water + Tween-80 + alcohol).
With `CCCCN1C(=O)N(c2ccc(OCC)cc2)C2N(CCCC)C1C(C)(C)C2(C)C` (stereo not given), the survivor count reads like this: (dose: 240.0 mg/kg/injection, schedule: Q04DX003 (ip), vehicle: saline with Tween-80) 0 of 6 on day 11; (dose: 480.0 mg/kg/injection, schedule: Q04DX003 (ip), vehicle: saline with Tween-80) 0 of 6 on day 11; (dose: 960.0 mg/kg/injection, schedule: Q04DX003 (ip), vehicle: saline with Tween-80) 0 of 6 on day 11.
As to `Cc1c(N)nc(C(CC(N)=O)NCC(N)C(N)=O)nc1C(=O)NC(C(=O)NC(C)C(O)C(C)C(=O)NC(C(=O)NCCc1nc(-c2nc(C(=O)NCCCNC(C)c3ccccc3)cs2)cs1)C(C)O)C(OC1OC(CO)C(O)C(O)C1OC1OC(CO)C(O)C(OC(N)=O)C1O)c1cnc[nH]1` (stereo not given), the survivor count (dose: 64.0 mg/kg/injection, schedule: Q01DX010 (sc), vehicle: saline) is 0 of 6 on day 11.
Turning to `O=NN(CCCl)C(=O)NC1CCCCC1`, the survivor count (dose: 64.0 mg/kg/injection, schedule: Q01DX010 (sc), vehicle: saline with Tween-80) is 0 of 3 on day 11; the survivor count (dose: 100.0 mg/kg/injection, schedule: Q04DX003 (sc), vehicle: Klucel (hydroxypropylcellulose) (HPC)) is reported as 0 of 3 on day 11; the survivor count (dose: 106.65 mg/kg/injection, schedule: Q04DX003 (ip), vehicle: saline with Tween-80) is on record as 1 of 3 on day 11; the survivor count (dose: 106.65 mg/kg/injection, schedule: Q04DX003 (sc), vehicle: saline with Tween-80) is recorded as 1 of 3 on day 11; the survivor count (dose: 213.3 mg/kg/injection, schedule: Q04DX003 (sc), vehicle: saline with Tween-80) is given as 0 of 3 on day 11.
In the case of `CC1[C@@H]2CC=C3[C@H]4CCC5Cc6nc7c(nc6C[C@@]5(C)C4CC(=O)[C@]32CO[C@]12OC(C)(C)CC2O)CC1CC[C@@H]2C3=C[C@H]4O[C@@]5(O[C@@](C)(CO)C[C@@H]5O)C(C)[C@@]4(O)[C@]3(C)[C@@H](O)CC2[C@]1(C)C7` (stereo not given in full), under “dose: 200.0 micrograms/kg/injection, schedule: Q04DX003 (ip), vehicle: saline + alcohol”, the survivor count was 3 of 6 on day 11.
For the compound `COC(=O)[C@@]12OC[C@]34[C@H]([C@@H](O)[C@@H]1O)[C@@]1(C)CC(=O)C(OC(=O)CC(=O)OC5=C(C)[C@@H]6C[C@H]7OC(=O)[C@H](OC(=O)/C=C(\C)C(C)C)[C@H]8[C@]9(C(=O)OC)OC[C@]78[C@H]([C@@H](O)[C@@H]9O)[C@@]6(C)CC5=O)=C(C)[C@@H]1C[C@H]3OC(=O)[C@H](OC(=O)/C=C(\C)C(C)C)[C@@H]24`, the survivor count was 3 of 6 on day 11 (dose: 12.5 mg/kg/injection, schedule: Q04DX003 (ip), vehicle: saline + Tween-80 + alcohol) and 2 of 6 on day 11 (dose: 25.0 mg/kg/injection, schedule: Q04DX003 (ip), vehicle: saline + Tween-80 + alcohol).
As for `CN(C)CCC(=O)C(=Cc1ccc(O)cc1)C(=O)CCN(C)C`, the survivor count is, setting by setting: (dose: 300.0 mg/kg/injection, schedule: Q04DX003 (ip), vehicle: saline) 1 of 6 on day 11; (dose: 600.0 mg/kg/injection, schedule: Q04DX003 (ip), vehicle: saline) 0 of 6 on day 11.
As for `Cc1ccc(/C=C/C(=O)/C=C/c2ccc(C)o2)o1`, the T/C (dose: 400.0 mg/kg/injection, schedule: Q04DX003 (ip), vehicle: DMSO) was 146 % of control.
On to `OCCN1CCN(CC/C=C2/c3ccccc3Sc3ccc(C(F)(F)F)cc32)CC1`, for which the survivor count (dose: 240.0 mg/kg/injection, schedule: Q04DX003 (sc), vehicle: saline) was 0 of 6 on day 11 and 3 of 6 on day 11; the survivor count (dose: 480.0 mg/kg/injection, schedule: Q04DX003 (sc), vehicle: saline) is recorded as 0 of 6 on day 11.
For the compound `COC(=O)NC1C(C)OC(OC2C/C=C(/C)C3C=CC4C(OC5CC(OC6CC(OC7CC(O)C(O)C(C)O7)C(OC7CC(O)C(OC)C(C)O7)C(C)O6)C(O)C(C)O5)C(C)CC(C)C4C3(C)/C(O)=C3\C(=O)OC4(CC(C)C(CO)=CC4/C=C\2C)C3=O)CC1(C)[N+](=O)[O-]` (stereo not given), under “dose: 600.0 mg/kg/injection, schedule: Q04DX003 (ip), vehicle: water”, the survivor count is recorded as 0 of 6 on day 11.
As to `Nc1nc2ncn(O)c2c(=O)[nH]1`, the survivor count is listed as 2 of 6 on day 11 (dose: 50.0 mg/kg/injection, schedule: Q04DX003 (ip), vehicle: water) and 0 of 6 on day 11 (dose: 100.0 mg/kg/injection, schedule: Q04DX003 (ip), vehicle: water).
For `CC1(C)CC(=O)C(CSC(=O)c2ccccc2)C(=O)C1`, for the setting “dose: 600.0 mg/kg/injection, schedule: Q04DX003 (sc), vehicle: Klucel (hydroxypropylcellulose) (HPC)”, the survivor count is reported as 1 of 6 on day 11.
